The text below walks through data of PMC5155689, “Pro-invasive Effect of Proto-oncogene PBF Is Modulated by an Interaction with Cortactin” (The Journal of Clinical Endocrinology and Metabolism, 2016).

Chains of the proteins cited; added tags and fusions are not shown. Lines headed by an entry give the natural chain unless they say otherwise; changes in a name come on top.
UniProt Q14247, whole entry: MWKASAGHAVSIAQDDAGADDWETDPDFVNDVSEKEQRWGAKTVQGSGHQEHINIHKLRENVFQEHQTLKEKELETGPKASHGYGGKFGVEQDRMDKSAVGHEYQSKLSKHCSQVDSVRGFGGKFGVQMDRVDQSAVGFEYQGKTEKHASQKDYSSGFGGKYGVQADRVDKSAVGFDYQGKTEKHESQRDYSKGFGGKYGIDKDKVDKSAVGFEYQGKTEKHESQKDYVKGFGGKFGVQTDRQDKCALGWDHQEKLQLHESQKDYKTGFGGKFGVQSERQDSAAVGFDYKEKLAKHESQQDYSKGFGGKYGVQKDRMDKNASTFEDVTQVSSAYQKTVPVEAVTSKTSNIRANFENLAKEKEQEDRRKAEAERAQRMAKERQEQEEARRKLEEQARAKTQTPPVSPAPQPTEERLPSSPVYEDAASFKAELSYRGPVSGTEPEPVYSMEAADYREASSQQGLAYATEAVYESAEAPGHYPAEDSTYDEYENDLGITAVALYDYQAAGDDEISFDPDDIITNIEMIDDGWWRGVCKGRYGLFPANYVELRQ

For assay [1], the target named is T1, PTTG1-binding factor (PBF/PTTG1IP) with a hemagglutinin (HA) tag, wild type (UniProt P53801).
T1 sequence: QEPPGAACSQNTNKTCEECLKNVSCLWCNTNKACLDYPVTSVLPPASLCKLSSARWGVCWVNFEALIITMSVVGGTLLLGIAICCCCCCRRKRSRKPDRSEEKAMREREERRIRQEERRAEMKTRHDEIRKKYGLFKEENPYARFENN
The assay is described as follows: proximity ligation; Duolink in situ PLA of PBF-HA (WT or Y174A) and myc-CTTN in transfected MCF-7, MDA-MB-231 and TPC-1 cells; also in cells halted during scratch wound assays.

The target of assay [2] is T1, PTTG1-binding factor (PBF/PTTG1IP) with a hemagglutinin (HA) tag, wild type. The assay is described as follows: co-IP; myc-tagged CTTN and HA-tagged PBF (WT or Y174A) transfected in MCF-7 and HeLa cells; in HeLa also after 50 nM dasatinib or vehicle.

Results are given in words; binding and its absence hold for the method and conditions named. In cells and extracts the contact can be indirect. Some results given as binding are weak or reduced against the parent protein; the word gives no strength. Sequences can lack the tags named with a protein.

With “human Myc-CTTN (cortactin) (from UniProt Q14247 1-550)”, the binding entry in assay [1] and in assay [2] was “binds” in each case.
